Test results published in patent publication US20220135701A1 (Genentech, published 2022).
Changes are numbered by the printed parent chain. These are yes or no findings as the source states them, for the method shown. Some entries that bind do so weakly or less than the wild type.

Columns and labels:
[1] = target: T1, human MerTK (human, UniProt Q12866 26-499); assay: SPR classic sandwich format: h13B4.v16 (2 ug/mL) captured by goat anti-human Fab chip, HuMerTK 50 nM injected
T1 construct: also called HuMER
T1 sequence: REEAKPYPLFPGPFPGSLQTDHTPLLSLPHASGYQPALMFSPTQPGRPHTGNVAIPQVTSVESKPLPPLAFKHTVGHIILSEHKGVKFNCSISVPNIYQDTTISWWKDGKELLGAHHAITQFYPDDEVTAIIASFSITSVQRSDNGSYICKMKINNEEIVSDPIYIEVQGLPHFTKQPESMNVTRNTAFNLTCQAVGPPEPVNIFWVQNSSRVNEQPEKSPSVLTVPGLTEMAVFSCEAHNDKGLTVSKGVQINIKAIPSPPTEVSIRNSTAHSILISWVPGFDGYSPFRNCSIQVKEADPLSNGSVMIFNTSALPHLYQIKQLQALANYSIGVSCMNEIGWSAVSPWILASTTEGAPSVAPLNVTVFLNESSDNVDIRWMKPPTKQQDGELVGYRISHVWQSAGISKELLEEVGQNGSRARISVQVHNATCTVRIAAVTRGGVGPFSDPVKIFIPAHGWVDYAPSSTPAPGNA

[2] = target: T1, human MerTK; assay: SPR BIAcore T200
[3] = target: T2, rat MerTK (rat, UniProt P57097 23-496, limits assumed); assay: SPR BIAcore T200
T2 construct: Soluble analyte in SPR
T2 sequence (looked up): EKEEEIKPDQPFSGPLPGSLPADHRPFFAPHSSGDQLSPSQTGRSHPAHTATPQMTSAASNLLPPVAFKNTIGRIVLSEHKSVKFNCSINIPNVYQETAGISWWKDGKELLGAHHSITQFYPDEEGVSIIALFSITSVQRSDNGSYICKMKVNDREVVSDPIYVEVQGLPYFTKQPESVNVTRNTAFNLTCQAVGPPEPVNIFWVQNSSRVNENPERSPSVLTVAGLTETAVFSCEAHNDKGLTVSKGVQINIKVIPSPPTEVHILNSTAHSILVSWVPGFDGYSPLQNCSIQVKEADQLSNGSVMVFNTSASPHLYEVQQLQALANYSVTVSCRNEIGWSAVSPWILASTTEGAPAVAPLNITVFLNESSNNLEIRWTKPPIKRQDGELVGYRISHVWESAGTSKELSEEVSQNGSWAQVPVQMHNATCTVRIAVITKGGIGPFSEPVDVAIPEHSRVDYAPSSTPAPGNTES

[4] = target: cynomolgus monkey MerTK (cynomolgus monkey); assay: SPR BIAcore T200
[5] = target: T3, mouse MerTK (mouse, UniProt Q60805 23-496); assay: SPR BIAcore T200
T3 construct: also called MuMER
T3 sequence (looked up): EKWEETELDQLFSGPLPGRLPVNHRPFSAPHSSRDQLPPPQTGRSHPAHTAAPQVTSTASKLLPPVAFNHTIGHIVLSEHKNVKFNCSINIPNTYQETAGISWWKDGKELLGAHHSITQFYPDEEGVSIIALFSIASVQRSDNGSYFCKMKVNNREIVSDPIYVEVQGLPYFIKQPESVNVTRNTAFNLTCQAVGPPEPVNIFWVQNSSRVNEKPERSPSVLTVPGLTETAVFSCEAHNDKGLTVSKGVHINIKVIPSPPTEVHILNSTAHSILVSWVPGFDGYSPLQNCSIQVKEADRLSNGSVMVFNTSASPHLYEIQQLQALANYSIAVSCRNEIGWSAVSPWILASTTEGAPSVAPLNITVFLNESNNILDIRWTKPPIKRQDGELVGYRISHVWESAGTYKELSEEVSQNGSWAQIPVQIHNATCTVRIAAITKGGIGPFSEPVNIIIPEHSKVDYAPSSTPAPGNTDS

Measured: binding

B1: h13B4.v16 (antibody, V domains shown)
VH: EVQLVESGEGLVQPGGSLRLSCAASGFSLSSYAMGWVRQAPGKGLEYVGIINSYGNTYYANWAKGRFTISRDNSKNTVYLQMGSLRAEDMAVYYCARDPGVSSNLWGRGTLVTVSS
VL: DIQMTQSPSTLSASVGDRVTITCQASQNIYSGLAWYQQKPGKAPKLLIYGASKLASGVPSRFSGSGSGTEFTLTISSLQPDDFATYYCQATYYSSNSVAFGGGTKVEIK
notes: Humanized, human IgG1; also called 13B4 Fully Humanized; 13B4 Humanized polished mAb
binds: [1] | [2]

B2: h9E3.FN.v1 (antibody, V domains shown)
VH: EQQLVESGGGLIQPGGSLRLSCAVSGFSLSSNAMSWVRQAPGKGLEWIGIISSSGSTYSASWAKGRFTISKDSSKNTMYLQMNSLRAEDTAVYFCARVGFFVGYGAYDYGIIHRLDLWGQGTLVTVSS
VL: DAQLTQSPSTLSASVGDRVTITCQSSKSIYNNNWLSWYQQKPGKPPKLLIYDASDLASGVPSRFSGSGSGTEFTLTISSLQPDDFATYYCAGGYSGDSDYAFGGGTKVEIK
notes: also called h9E3.FN.V1 (Parent); 9E3.FN Humanized mAb V1
binds: [2] | [3] | [4] | [5]

B3: h9E3.FN.v16 (antibody, V domains shown)
VH: B2 VH with Q2V, V24A, I48V, G49S, S73N, M78L, F94Y
VL: B2 VL with A2I
notes: Humanized, human IgG1; also called 9E3.FN Humanized polished mAb
binds: [2] | [3] | [4] | [5]
